Results: article PMC8210614 (Theranostics, 2021)

Assay: general procedure: Fmoc solid-phase peptide synthesis; Fmoc Ser(t-Bu) TentaGel S PHB 0.25 mmol/g; HATU/HOAt (dye conjugation)
Conditions: conjugation step, RP-HPLC

In the case of “PEPTIDE1{[IRDye800CW].E.E.[O2O].[O2O].D.[Cha].F.[dS].[dR].Y.L.W.S}$$$$V2.0”, the “final HPLC purity” value is reported as 98%.

Strings that start with PEPTIDE1 are HELM notation: dots part the residues, brackets hold end groups and non-standard residues.
